In publication PMC10160066 one finds binding data, which are given here for six molecules.

Results are given in words; binding and its absence hold for the method and conditions named. Binding seen in cells or lysates may run through a third protein. For some of these results: Binding can be weak; no strength is given. For some of these results: Where a sequence is shown, tags or fusion partners need not be part of it.

The target in assay [1] is T1, TFT1 (tomato) (UniProt P93206).
T1 sequence: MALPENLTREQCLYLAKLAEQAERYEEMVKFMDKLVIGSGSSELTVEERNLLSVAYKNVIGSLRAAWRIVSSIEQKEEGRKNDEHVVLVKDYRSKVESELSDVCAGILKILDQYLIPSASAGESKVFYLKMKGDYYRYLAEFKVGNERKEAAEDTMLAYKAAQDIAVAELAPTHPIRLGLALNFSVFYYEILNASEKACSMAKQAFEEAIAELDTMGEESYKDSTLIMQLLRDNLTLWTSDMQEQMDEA
As to the kind of experiment: co-IP + split reporter; series of co-immunoprecipitation and split-luciferase experiments with Prf and the TFT isoforms in N. benthamiana; which of the two Supplementary Fig. 1b shows is not told.

Assay [2] deals with T2, TFT3 (tomato) (UniProt P93209).
T2 sequence: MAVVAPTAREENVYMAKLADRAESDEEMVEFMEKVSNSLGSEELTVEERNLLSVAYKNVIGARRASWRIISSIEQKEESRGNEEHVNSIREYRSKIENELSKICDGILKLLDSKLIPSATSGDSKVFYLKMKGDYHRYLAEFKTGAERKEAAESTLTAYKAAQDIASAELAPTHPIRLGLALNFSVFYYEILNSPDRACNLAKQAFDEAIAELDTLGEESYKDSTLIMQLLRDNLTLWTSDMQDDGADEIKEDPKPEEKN
The assay is described as above.

Assay [3] deals with T3, TFT3-GFP (tomato) (UniProt P93209).
T3 sequence: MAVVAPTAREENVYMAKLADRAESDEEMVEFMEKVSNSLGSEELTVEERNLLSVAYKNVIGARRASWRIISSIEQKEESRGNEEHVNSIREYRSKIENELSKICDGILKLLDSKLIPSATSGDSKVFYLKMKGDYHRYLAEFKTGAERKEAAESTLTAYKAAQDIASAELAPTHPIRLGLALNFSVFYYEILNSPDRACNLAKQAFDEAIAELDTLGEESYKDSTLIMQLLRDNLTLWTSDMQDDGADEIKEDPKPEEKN
As to the kind of experiment: co-IP; constructs co-expressed in N. benthamiana leaves; extract incubated with GFP-Trap, Myc-Trap, anti-FLAG M2 or anti-HA agarose beads for 2 h at 4 °C, five washes, immunoblot; the Prf-Pto pair was tested with and without AvrPto co-expressed. On the technique in general: Immunoblotting shows a protein as a band on a membrane.

The target of assay [4] is T4, TFT3, split-luciferase fusion (tomato) (UniProt P93209).
T4 sequence: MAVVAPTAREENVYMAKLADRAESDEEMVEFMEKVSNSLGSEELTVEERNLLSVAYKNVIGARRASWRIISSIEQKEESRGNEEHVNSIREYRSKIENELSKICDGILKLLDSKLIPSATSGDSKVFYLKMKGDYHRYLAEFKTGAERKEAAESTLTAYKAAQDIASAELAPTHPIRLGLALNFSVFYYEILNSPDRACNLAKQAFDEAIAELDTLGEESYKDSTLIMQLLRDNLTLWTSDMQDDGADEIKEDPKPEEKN
As to the kind of experiment: split reporter; split-luciferase; NLUC and CLUC fusions co-infiltrated into N. benthamiana leaves; luminescence imaged 3 days post-infiltration.

Assay [5] concerns the target T5, Pto-FLAG (tomato) (UniProt Q40234).
T5 sequence: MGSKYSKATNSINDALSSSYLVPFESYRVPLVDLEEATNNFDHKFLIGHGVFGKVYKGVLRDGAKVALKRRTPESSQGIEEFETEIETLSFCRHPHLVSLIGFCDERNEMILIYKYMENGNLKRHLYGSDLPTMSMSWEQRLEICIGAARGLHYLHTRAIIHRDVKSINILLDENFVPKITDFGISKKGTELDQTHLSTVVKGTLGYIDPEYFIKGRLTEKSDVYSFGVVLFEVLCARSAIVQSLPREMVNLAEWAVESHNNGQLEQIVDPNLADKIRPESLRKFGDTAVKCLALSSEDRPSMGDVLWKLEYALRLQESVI
As to the kind of experiment: co-IP + native gel or EMSA; Prf-Myc and Pto-FLAG expressed from their native promoters in N. benthamiana, with or without AvrPto or AvrPtoB; IP with α-FLAG agarose beads; eluted fraction run on blue native PAGE (4-16% NativePAGE Bis-Tris). For orientation: Mobility shift assays separate free from complexed probe on a gel.

The target of assay [6] is Prf-HA (tomato). As to the kind of experiment: co-IP; constructs co-expressed in N. benthamiana leaves; extract incubated with GFP-Trap, Myc-Trap, anti-FLAG M2 or anti-HA agarose beads for 2 h at 4 °C, five washes, immunoblot; the Prf-Pto pair was tested with and without AvrPto co-expressed.

For the molecule Prf (tomato) (receptor), the binding entry in assay [1] and in assay [2] was “no binding” in each case.
As for “N-terminal-deleted autoactive version of MAPKKKα, HA tagged (tomato) (domain or fragment)”, the binding result in assay [3] is on record as “binds”.
For “MAPKKKα, split-luciferase fusion (tomato) (enzyme)”, in assay [4], the binding entry was “binds”.
As to Prf-Myc (tomato) (receptor), in assay [5], the binding entry was “binds”.
As to MAPKKKα-HA (tomato) (enzyme), the binding entry in assay [3] is listed as “binds”.

B1: Pto-FLAG (enzyme, UniProt Q40234 1-321)
chain: MGSKYSKATNSINDALSSSYLVPFESYRVPLVDLEEATNNFDHKFLIGHGVFGKVYKGVLRDGAKVALKRRTPESSQGIEEFETEIETLSFCRHPHLVSLIGFCDERNEMILIYKYMENGNLKRHLYGSDLPTMSMSWEQRLEICIGAARGLHYLHTRAIIHRDVKSINILLDENFVPKITDFGISKKGTELDQTHLSTVVKGTLGYIDPEYFIKGRLTEKSDVYSFGVVLFEVLCARSAIVQSLPREMVNLAEWAVESHNNGQLEQIVDPNLADKIRPESLRKFGDTAVKCLALSSEDRPSMGDVLWKLEYALRLQESVI
B1: the binding result in assay [6] was “binds”.
